{
  "source": "the supplement of paper PMC8728848",
  "key": {"[1]": {"molecular_target": "Neu5Gc(a2-8)Neu5Gc(a2-6)Gal(b1-4)GlcNAc", "assay": "glycan array binding signal (z-score within array); higher = stronger binding", "details": "glycan notation: IUPAC condensed, linker removed", "in_short": "(§1)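 Columns mapping to the same glycan were averaged after glycan names were converted to IUPAC-condensed notation. The data come from 3228 arrays in the Consortium for Functional Glycomics database, limited to those with an available protein sequence. Binding is reported as a within-array Z-score averaged across arrays of one protein sequence and across linkers.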"}, "[2]": {"molecular_target": "Neu5Gc(b2-6)Gal(b1-4)GlcNAc", "assay": "glycan array binding signal (z-score within array); higher = stronger binding", "details": "glycan notation: IUPAC condensed, linker removed", "in_short": "as §1"}},
  "note": "The other results are listed elsewhere or left out.",
  "data": [
    {"binder": "Awp1 (Candida glabrata) (protein) MSLITIFAFLIKATLVLSLDILTPTTLTGDQTFNEDVSVVSSLTLNDGSQYLFNNLLQIAPSSASVTANALAAVSVFTFSLPPSSSLSNSGTLIISNSNTGPSTEQHIVITPNVMANTGTITLSLAHTNTDSSSTLIIDPVTFYNTGTINYESIGSETNDPSLTGNILSIGSSGRTLQNLGTINLNAANSYYLLGTITENSGSINVQKGFLYVNALDFIGNTINLSTTTALAFISPVSQVVRVRGVFFGNIIASVGSSGTFSYNTQTGILTVTTNGVYSYDIGCGYNPALMSGQQETLSFQGNPYDTFLVLVNQPIPSDLTCAAVSSSITPSSSVEPSSSVVPSSSVEPSSSVEPSSSVEPSSSVEPSSSVEPSSSVEPSSSVEPSSSVEPSSSVEPSSSVEPSSSVEPSSSVEPSSSVEPSSSVEPSSSVEPSSSVEPSSSVEPSSSVEPSSSVEPSSLIVPSSSVEPSSSVLPSSSVVPSSSVEPSTPPIPSSSVEPSSSVVPSSPAVPSSSVEPSTPPIPSSSVVSASVFDTSSTLPSSPSVPPSSVSPSTISTPSSSAAPSSFCPTCVSSGTPPAPSSSAIVPTSSAGGGNGGDNREPGAAGQPGAAGQPGAAGQPGAAGQPGAAGQPGAAGQPGAAGQPGAAGQPGAAGQPGAAGQPGAGFGVGSEQPTPGAGAGSGSADGNQSGTGSGTGNGQQGSGQAGSGQAGSGQEGSGQAGSGQAGSGQAGSGQAGSGQAGLDNTASGQSEGGQASAMDGDQSGRDGQSNSGSLLQPNAQQGTGSGTGSDIGADQASGESPGQIGDAQPGSGTDQSSGRHSLAAEARTSQSHSLAADARTRSTTRQTSVIAPDTAPGTASGTAPGTAPGTAVVTTFHGCGTVNHKGMINILLALALLVLL", "values": [
      {"measurement": "glycan array binding signal (z-score)", "setting": "[1]", "result": 0.366},
      {"measurement": "glycan array binding signal (z-score)", "setting": "[2]", "result": -0.509}
    ]}
  ]
}
